According to US20040077615A1, “Novel formulations for administering therapeutic lipophilic molecules” (priority 2000, published 2004):

Conditions: healthy human volunteers, single subcutaneous dose 5 mg in sesame oil (10 mg/ml), no benzyl alcohol; FIG. 1

Q: Which “time to reach peak concentration in blood” value does the source give for `CN1C(=O)CN=C(c2ccccc2)c2cc(Cl)ccc21` [diazepam] here?
A: Its value is “less then one hour”.
